# Measured values as given in PubChem BioAssay AID1347076 (National Center for Advancing Translational Sciences (NCATS), 2019).
# Hit rate of the full screen: of about 400,000 compounds, about 13,000 (3.2%) were called active. This list was built around the results that the source calls inconclusive (neither active nor inactive); the mix of calls is not that of the screen. Calls follow the shape of the dose curve; as a rule, active = well fitted cell-killing curve with a large enough effect; inconclusive = small, poorly fitted or top-dose-only effect, or effect the other way; inactive = flat fitted curve, though single readings scatter. Potencies beside an inconclusive call are fits to weak or partial responses and may not hold up.
# Assay: qHTS assay for MDR1-selective chemotherapeutics: Primary screen using the drug-selected MDR subline cells KB-V1; also: nearly all actives have a fitted effect of over 60% in size
# Details: KB-V1 MDR cells viability, CellTiter-Glo, 72 h; activity change, negative = cytotoxicity: at 46.1 µM (top of the series)
# Method in brief: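 KB-V1, DMEM (no phenol red) + 10% FBS; cpd pin-transferred, titration series; 72 h, 37 degrees C; CellTiter-Glo, luminescence. Data normalized, curve-fit.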
# % is scaled to controls: 0 for no effect and ±100 for the full control effect; potency is read from the fitted curve at half-maximal effect.
SMILES,Potency,"activity change, negative = cytotoxicity"
CC1CCCN(c2nc(N(C)c3ccccc3)nc(N)c2[N+](=O)[O-])C1 (centres undefined),"inconclusive: 29.1 µM [cytotoxic, single point]",
COC(=O)c1c(SCC(=O)Nc2ccccc2OC)[nH]c2ccccc2c1=O,"inconclusive: 29.1 µM [cytotoxic, single point]",
O=C1[C@H]2[C@@H](c3ccc(C(F)(F)F)cc3)N[C@]3(CCCN(Cc4ccc(Br)cc4)C3=O)[C@H]2C(=O)N1Cc1ccccc1,,inactive: -1.88%
Cc1cc2ccccc2n1-c1ccc(C(=O)N2CCC(C(=O)NCc3ccc(F)cc3)CC2)s1,,inactive: -17.3%
O=c1c2ccccc2nc(/C=C/c2ccc(Br)cc2)n1CCO,"inconclusive: 25.9 µM [cytotoxic, single point]",
COc1ccc(Oc2nc3c(c(=O)n(Cc4ccccc4Cl)c(=O)n3C)n2C)cc1,"inconclusive: 2.91 µM [cytotoxic, full curve]",
CC(C)(C)OC(=O)NCCCCCNC(=O)c1[nH]cnc1C(=O)Nc1cc(Br)ccc1F,"inconclusive: 29.1 µM [cytotoxic, single point]",
O=C(CSc1nc(C2CC2)nc2ccccc12)Nc1ccc2c(c1)OCCO2,active: 14.6 µM,
Cc1c(C(=O)Nc2ccccc2N2CCN(C)CC2)oc2ccc(F)cc12,"inconclusive: 5.8 µM [cytotoxic, full curve, poor fit]",
CN(c1ccc(OCCOc2ccccc2Cl)cc1)S(=O)(=O)c1ccccc1,active: 16.4 µM,
Cc1nc(SCC(=O)Nc2ccc(F)cc2)c(C#N)c(C)c1CC(=O)c1ccc(Br)cc1,"inconclusive: 29.1 µM [cytotoxic, single point]",
Cc1ccc(NC(=O)CSCC(=O)Nc2cccc3ncccc23)cc1,,inactive: 22.4%
CCCCOC(=O)Nc1ccc(S(=O)(=O)Nc2ccc([N+](=O)[O-])cc2)cc1,active: 20.6 µM,
O=C(Nc1ccc2c(c1)C(=O)NC2=O)c1cc(Cl)ccc1Cl,"inconclusive: 29.1 µM [rising, single point]",
Cc1ccc(N/N=C(\C#N)C(=N)N2CCCCC2)cc1,"inconclusive: 0.82 µM [cytotoxic, full curve, poor fit]",
N#Cc1c(C(F)(F)F)cc(-c2ccccc2)nc1SCc1nc(N)nc(N2CCOCC2)n1,"inconclusive: 0.92 µM [cytotoxic, full curve]",
Cc1cc(C(=O)CN2C(=O)C(=O)N(Cc3ccccc3)C2=O)c(C)n1-c1ccc2c(c1)OCCO2,"inconclusive: 29.1 µM [cytotoxic, single point]",
COc1ccc(C)cc1N1CC(C(=O)Nc2cccc(C(=O)NC3CC3)c2)CC1=O (centres undefined),"inconclusive: 29.1 µM [rising, partial curve, poor fit]",
C/C=C/c1cc(OC)c2c(c1)[C@H](C)[C@@H](c1ccc(O)c(OC)c1)O2,"inconclusive: 3.66 µM [rising, partial curve, poor fit]",
Cc1ccc2nc3cc([N+](=O)[O-])cc([N+](=O)[O-])c3cc2c1,"inconclusive: 29.1 µM [cytotoxic, single point]",
COc1ccc(OCc2cc(C(=O)NCCc3ccccc3)no2)c(Cl)c1,"inconclusive: 32.6 µM [cytotoxic, partial curve, poor fit]",
NC(=O)c1ccc(NC(=O)Cc2cccs2)cc1,"inconclusive: 5.17 µM [rising, full curve]",
COc1ccc(C(=O)N2CCOC2CNC(=O)C(=O)NCc2ccc3c(c2)OCO3)cc1 (centres undefined),"inconclusive: 20.6 µM [cytotoxic, single point]",

# Single values from the list.
# Cc1ccc(N/N=C(\C#N)C(=N)N2CCCCC2)cc1 – Potency: inconclusive: 0.82 µM [cytotoxic, full curve, poor fit]
# COC(=O)c1c(SCC(=O)Nc2ccccc2OC)[nH]c2ccccc2c1=O – Potency: inconclusive: 29.1 µM [cytotoxic, single point]

# Next part:

SMILES,Potency,"activity change, negative = cytotoxicity"
O=C(NNC(=O)C1CCN(S(=O)(=O)c2ccc(Cl)cc2)CC1)c1ccccc1O,,inactive: -1.18%
CC(NC(=O)c1ccco1)C(=O)N(C)Cc1ccc(C(F)(F)F)cc1 (centres undefined),"inconclusive: 5.8 µM [cytotoxic, full curve, poor fit]",
Cc1ccc(NC2CCCN(C(=O)c3cccc4nccnc34)C2)cc1C (centres undefined),"inconclusive: 14.6 µM [cytotoxic, partial curve, poor fit]",
O=C(NCC(c1cccs1)S(=O)(=O)c1cccs1)c1ccc(C(F)(F)F)cc1 (centres undefined),,inactive: -11.6%
Cc1ccnc(NC(=O)CN2C(=O)NC(C)(c3ccc4ccccc4c3)C2=O)c1 (centres undefined),"inconclusive: 20.6 µM [cytotoxic, partial curve, poor fit]",
CC(=O)Nc1ccc(Nc2nnc(-c3ccc(O)cc3)c3ccccc23)cc1,"inconclusive: 29.1 µM [rising, single point]",
O=c1c(Cl)c(O)c2cccc3c4ccccc4n1c23,"inconclusive: 20.6 µM [cytotoxic, single point]",
CN1C(=O)c2ccccc2Sc2ccc(NC(=O)N3CCOCC3)cc21,,inactive: -6.3%
O=C(Cc1ccccc1)NCC(=O)N/N=C/c1ccc(C(=O)O)cc1,"inconclusive: 29.1 µM [rising, single point]",
CCCn1c(N2CCC(Cc3ccccc3)CC2)nc2c1c(=O)[nH]c(=O)n2C,"inconclusive: 18.4 µM [cytotoxic, partial curve, poor fit]",
CCN(CCCNc1cc2c(c(N)c1S(=O)(=O)O)C(=O)c1ccccc1C2=O)c1ccccc1,,inactive: 2.46%
CCN(CC)C(=O)N1CCN(S(=O)(=O)c2ccc(C)c(C)c2)CC1,"inconclusive: 11.6 µM [cytotoxic, partial curve, poor fit]",
O=C(OCc1ccccc1Cl)c1ccc(-c2nnn(Cc3ccccc3Cl)n2)cc1,,inactive: 3.14%
CS(=O)(=O)c1[nH]nc(-c2ccccc2Cl)c1C#N,,inactive: -10%
CC(=O)N/N=C/c1ccc(OCCOc2ccc(Br)cc2)cc1,,inactive: 7.92%
COC(=O)c1ccc2nc(-c3cccc(Br)c3)c(Cc3cccc(F)c3)n2c1,"inconclusive: 13 µM [cytotoxic, partial curve]",
CC(C)C(OC(=O)c1nsc(Cl)c1Cl)C(=O)NCc1ccccc1 (centres undefined),"inconclusive: 29.1 µM [rising, single point]",
CCn1c(-c2cc(-c3ccc(C)cc3)nc3ccccc23)n[nH]c1=S,,inactive: 6.75%
O=C(Nc1ccc(N2CCOCC2)c(Cl)c1)c1ccc(F)cc1,active: 14.6 µM,
COc1ccccc1N=C1SC(C(=O)Nc2cccc(Cl)c2Cl)C(N)=C1C(N)=O (centres undefined),active: 3.66 µM,
Cc1cccc(-n2cnc3cc([N+](=O)[O-])ccc32)c1,"inconclusive: 16.4 µM [cytotoxic, single point]",
CCN(CC(=O)Nc1ccc(NC(C)=O)cc1)C(=O)/C=C/c1ccco1,"inconclusive: 18.4 µM [rising, single point]",
CC(Nc1ncnc2sccc12)c1ccccc1 (centres undefined),,inactive: -8.55%

# An excerpt of these results, with bars between the fields.
SMILES | Potency | activity change, negative = cytotoxicity
O=C(NNC(=O)C1CCN(S(=O)(=O)c2ccc(Cl)cc2)CC1)c1ccccc1O |  | inactive: -1.18%
CC(NC(=O)c1ccco1)C(=O)N(C)Cc1ccc(C(F)(F)F)cc1 (centres undefined) | inconclusive: 5.8 µM [cytotoxic, full curve, poor fit] | 

# Next part

SMILES,Potency,"activity change, negative = cytotoxicity"
O=C1c2ccccc2NC(c2ccc(-c3cccc(Cl)c3)o2)N1O (centres undefined),active: 4.61 µM,
N#C/C=C(/N)N1CCN(c2ccc(Cl)c(Cl)c2)CC1,,inactive: -20.8%
CC(C)c1nc(SCC(=O)Nc2nccs2)c2ccccc2n1,,inactive: -10.6%
CN(Cc1ccco1)S(=O)(=O)c1ccc2c(c1)CCN2C(=O)CCC(=O)O,,inactive: -6.83%
Cc1ccc(S(=O)(=O)N[C@@H](Cc2ccccc2)C(=O)CCl)cc1,"inconclusive: 29.1 µM [cytotoxic, single point]",
Cn1cnnc1SCC(=O)c1ccc2c(c1)OCO2,"inconclusive: 29.1 µM [rising, single point]",
COc1cc(C(=O)N2CCCCCCC2)ccc1OC1CCN(C(C)=O)CC1,"inconclusive: 29.1 µM [cytotoxic, partial curve, poor fit]",
CSCCNC(=O)C1(C)CCN1C(=O)C/C=C/c1ccccc1 (centres undefined),"inconclusive: 20.6 µM [cytotoxic, partial curve, poor fit]",
C[C@@H]1CN([C@@H](C)CO)C(=O)Cc2cc(NS(=O)(=O)c3cn(C)cn3)ccc2O[C@@H]1CN(C)C(=O)Nc1ccccc1,,inactive: 4.56%
O=C(O)CCc1ccc(-c2ccccc2)n1-c1cccc(Br)c1,,inactive: 0%
CC(C)(C)OC(=O)NCCCC[C@@H](C(=O)NCCCCCCCCCCC(=O)N1CCN(C(=O)OC(C)(C)C)CC1)n1cc(CCCC(=O)O)nn1,"inconclusive: 20.6 µM [rising, single point]",
Cn1cccc1/C=C1\SC(=S)N(NC(=O)c2ccccc2)C1=O,,inactive: -5.67%
O=C(Nc1ccccc1N1CCOCC1)c1ccccc1NS(=O)(=O)c1ccc(F)cc1,,inactive: 0%
O=C(Nc1nnc([C@H]2C[C@H](O)[C@@H](CO)O2)s1)c1cccc(Cl)c1,,inactive: 16.6%
Cc1cccc(NC(=S)NCCc2c[nH]c3ccccc23)c1,"inconclusive: 18.4 µM [cytotoxic, single point]",
N#CC1=C(N)OC2=C(CN(Cc3ccccc3)C/C2=C\c2cccnc2)C1c1cccnc1 (centres undefined),,inactive: 14.6%
Cc1ccc(NC(=O)CCSc2nc(-c3ccc4c(c3)OCO4)cc(C(F)(F)F)n2)cc1,"inconclusive: 3.26 µM [cytotoxic, full curve]",
Cc1ccc(-n2c(Cc3cccn3C)nnc2SCC(=O)NCc2ccc3c(c2)OCO3)cc1,active: 14.6 µM,
Cc1cc(C)c[n+](CC(=O)c2c(C)cc(C)c([N+](=O)[O-])c2C)c1,"inconclusive: 3.26 µM [rising, full curve, poor fit]",
COc1ccc(-n2nc(C(=O)NCC(=O)Nc3ccc(F)cc3)c3ccccc3c2=O)cc1,"inconclusive: 5.8 µM [cytotoxic, partial curve]",
CCN(CC)c1ncnc2scc(C3COc4ccccc4O3)c12 (centres undefined),"inconclusive: 29.1 µM [cytotoxic, single point]",
COc1cc(NC(=O)CCN2CCN(c3ccccc3OC)CC2)cc(OC)c1,,inactive: 12.6%
COc1cccc(CC(=O)Nc2nc(-c3cc(OC)ccc3OC)cs2)c1,"inconclusive: 16.4 µM [cytotoxic, partial curve, poor fit]",
